This is an account of results in PMC6683576.

Protein sequences, listed by entry. Tags and fused reporters are not part of them.
UniProt Q04206: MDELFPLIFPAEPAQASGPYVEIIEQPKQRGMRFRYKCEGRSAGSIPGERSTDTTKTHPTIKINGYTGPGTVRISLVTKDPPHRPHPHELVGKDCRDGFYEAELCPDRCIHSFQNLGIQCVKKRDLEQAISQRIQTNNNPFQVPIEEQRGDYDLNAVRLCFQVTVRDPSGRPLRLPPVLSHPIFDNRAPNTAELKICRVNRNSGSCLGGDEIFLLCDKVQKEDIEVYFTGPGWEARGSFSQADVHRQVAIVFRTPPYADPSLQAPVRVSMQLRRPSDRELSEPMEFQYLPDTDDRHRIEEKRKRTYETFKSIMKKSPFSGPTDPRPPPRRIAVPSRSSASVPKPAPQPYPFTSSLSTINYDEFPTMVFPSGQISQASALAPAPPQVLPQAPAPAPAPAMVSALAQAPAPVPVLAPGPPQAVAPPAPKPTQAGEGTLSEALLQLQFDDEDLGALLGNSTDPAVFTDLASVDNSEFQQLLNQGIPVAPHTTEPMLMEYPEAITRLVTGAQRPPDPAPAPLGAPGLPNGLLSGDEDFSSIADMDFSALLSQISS
UniProt P11142: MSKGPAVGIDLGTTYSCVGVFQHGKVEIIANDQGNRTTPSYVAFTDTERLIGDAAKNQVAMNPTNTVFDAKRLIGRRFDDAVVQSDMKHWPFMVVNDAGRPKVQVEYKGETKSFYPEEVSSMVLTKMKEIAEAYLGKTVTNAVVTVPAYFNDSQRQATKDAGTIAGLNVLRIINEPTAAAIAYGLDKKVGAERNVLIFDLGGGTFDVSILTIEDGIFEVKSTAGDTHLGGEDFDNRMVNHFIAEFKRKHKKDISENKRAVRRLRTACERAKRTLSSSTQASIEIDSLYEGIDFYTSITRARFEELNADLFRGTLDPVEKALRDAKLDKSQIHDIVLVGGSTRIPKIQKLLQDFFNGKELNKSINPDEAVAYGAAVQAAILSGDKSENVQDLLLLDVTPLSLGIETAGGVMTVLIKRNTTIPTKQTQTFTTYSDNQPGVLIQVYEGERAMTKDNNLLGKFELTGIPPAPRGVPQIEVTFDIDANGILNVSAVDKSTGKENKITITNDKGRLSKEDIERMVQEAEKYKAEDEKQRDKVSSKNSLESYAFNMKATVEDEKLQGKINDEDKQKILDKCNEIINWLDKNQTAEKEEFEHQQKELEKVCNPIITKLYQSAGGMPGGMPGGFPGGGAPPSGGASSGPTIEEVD

Assay [1] has as its target T1, GKN2 (myc-tagged) (human) (UniProt Q86XP6).
T1 sequence: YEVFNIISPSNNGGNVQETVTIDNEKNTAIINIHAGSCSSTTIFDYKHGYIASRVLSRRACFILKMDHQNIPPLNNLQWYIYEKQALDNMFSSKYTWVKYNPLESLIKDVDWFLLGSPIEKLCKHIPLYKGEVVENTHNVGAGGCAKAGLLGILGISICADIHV
Put plainly: co-IP; anti-myc immunoprecipitation from lysates of MGC cells expressing myc-GKN2 or SGC cells expressing myc-Hsc70; detected by blot with indicated antibodies.

The target in assay [2] is p65 (UniProt Q04206). The assay can be described thus: co-IP; Co-IP assay of Hsc70 and p65 (Figure S5c); cells not given.
Assay [3] has as its target myc-Hsc70 (UniProt P11142). Put plainly: co-IP; anti-myc immunoprecipitation from lysates of MGC cells expressing myc-GKN2 or SGC cells expressing myc-Hsc70; detected by blot with indicated antibodies.

Results are given in words; binding and its absence hold for the method and conditions named. In cells and extracts the contact can be indirect. Some binding calls cover weakened binding; strength is not graded here. For part of these data: Sequences can lack the tags named with a protein.

As to Hsc70 (from UniProt P11142 1-646), the binding entry in assay [1] is listed as “binds”.
“Hsc70 in the co-immunoprecipitation with p65 (from UniProt P11142 1-646)”: the binding entry in assay [2] is reported as “binds”.

B1: GKN2 in SGC cells expressing myc-Hsc70 (protein, UniProt Q86XP6 21-184)
chain: T1 sequence
Turning to B1, the binding entry in assay [3] is “binds”.
